The assay deals with Plasmodium berghei actin-like protein Alp5a, endogenously tagged with 3XHA (Alp5a-3XHA) (P. berghei). The assay is described as follows: co-IP; purified gametocytes of Alp5a-3XHA parasites crosslinked with 5 mM DSP, lysed in RIPA buffer; anti-HA magnetic beads, 30 min at RT; blot probed with anti-HA and anti-Alp5b antibodies.

Amino acid sequences for entries named in this document (tags omitted). A change or cut given only in a name is not applied to a line headed by its entry.
UniProt A0A509AML7: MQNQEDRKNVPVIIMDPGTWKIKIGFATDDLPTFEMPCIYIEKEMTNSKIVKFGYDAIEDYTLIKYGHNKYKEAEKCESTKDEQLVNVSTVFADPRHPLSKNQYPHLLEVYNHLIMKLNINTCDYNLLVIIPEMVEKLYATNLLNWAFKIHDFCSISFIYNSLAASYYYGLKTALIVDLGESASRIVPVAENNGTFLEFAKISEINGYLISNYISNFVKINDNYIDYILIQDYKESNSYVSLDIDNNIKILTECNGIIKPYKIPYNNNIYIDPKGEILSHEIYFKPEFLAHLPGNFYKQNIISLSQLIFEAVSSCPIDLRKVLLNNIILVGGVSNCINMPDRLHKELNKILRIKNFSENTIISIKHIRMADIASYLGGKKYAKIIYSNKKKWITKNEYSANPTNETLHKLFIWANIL

No constants are given. Whether binding was seen depends on the method and setting. In cells and extracts the contact can be indirect. A result given as binding can be weak or reduced; the word gives no strength.

With “Plasmodium berghei actin-like protein Alp5b (from UniProt A0A509AML7)”, the binding result is recorded as “binds”.

The values are drawn from publication PMC12617974.
